Assay results as given in the supplement of paper PMC10849652.
The list shows a part of the results.

By UniProt entry, the sequences of proteins in these tests, tags left out. Where a name states a change or a piece, a line headed by the entry shows the natural chain unless it says otherwise.
UniProt Q9Y3A6: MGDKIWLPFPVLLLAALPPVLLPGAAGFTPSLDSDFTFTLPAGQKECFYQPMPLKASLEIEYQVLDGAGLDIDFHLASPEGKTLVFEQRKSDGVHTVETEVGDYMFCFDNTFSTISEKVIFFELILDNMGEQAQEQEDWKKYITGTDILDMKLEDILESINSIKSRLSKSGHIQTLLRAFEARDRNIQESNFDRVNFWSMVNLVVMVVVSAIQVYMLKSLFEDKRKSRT
UniProt Q15363: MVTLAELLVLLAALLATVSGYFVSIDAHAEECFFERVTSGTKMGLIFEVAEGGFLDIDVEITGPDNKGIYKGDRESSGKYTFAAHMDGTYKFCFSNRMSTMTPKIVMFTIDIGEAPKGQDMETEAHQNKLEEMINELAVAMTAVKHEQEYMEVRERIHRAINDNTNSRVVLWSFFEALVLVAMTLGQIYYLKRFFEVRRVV
UniProt Q6I9Y2: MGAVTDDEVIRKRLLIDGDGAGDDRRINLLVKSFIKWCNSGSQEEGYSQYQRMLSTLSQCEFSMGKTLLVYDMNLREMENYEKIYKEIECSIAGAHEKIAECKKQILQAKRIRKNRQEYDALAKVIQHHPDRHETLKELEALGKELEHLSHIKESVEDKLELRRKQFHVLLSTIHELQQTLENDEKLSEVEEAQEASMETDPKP
UniProt Q9BVV7: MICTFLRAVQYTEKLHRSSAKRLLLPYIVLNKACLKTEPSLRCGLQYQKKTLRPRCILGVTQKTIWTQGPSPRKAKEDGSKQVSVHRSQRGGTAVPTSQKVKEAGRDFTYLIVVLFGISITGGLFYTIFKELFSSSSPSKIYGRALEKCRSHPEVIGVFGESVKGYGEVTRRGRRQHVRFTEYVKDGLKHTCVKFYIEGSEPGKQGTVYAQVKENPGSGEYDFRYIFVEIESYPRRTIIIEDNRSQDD
UniProt Q8IUX1: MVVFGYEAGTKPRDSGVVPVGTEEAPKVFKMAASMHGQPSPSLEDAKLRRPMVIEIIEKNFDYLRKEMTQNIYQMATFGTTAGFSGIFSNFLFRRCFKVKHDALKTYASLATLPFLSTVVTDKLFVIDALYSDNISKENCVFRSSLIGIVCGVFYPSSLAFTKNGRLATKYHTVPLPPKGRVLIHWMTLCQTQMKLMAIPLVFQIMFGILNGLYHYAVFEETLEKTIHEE
UniProt O60220: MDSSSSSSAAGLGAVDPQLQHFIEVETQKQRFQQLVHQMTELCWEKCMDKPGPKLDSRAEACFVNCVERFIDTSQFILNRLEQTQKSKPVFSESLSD
UniProt Q5TEJ8: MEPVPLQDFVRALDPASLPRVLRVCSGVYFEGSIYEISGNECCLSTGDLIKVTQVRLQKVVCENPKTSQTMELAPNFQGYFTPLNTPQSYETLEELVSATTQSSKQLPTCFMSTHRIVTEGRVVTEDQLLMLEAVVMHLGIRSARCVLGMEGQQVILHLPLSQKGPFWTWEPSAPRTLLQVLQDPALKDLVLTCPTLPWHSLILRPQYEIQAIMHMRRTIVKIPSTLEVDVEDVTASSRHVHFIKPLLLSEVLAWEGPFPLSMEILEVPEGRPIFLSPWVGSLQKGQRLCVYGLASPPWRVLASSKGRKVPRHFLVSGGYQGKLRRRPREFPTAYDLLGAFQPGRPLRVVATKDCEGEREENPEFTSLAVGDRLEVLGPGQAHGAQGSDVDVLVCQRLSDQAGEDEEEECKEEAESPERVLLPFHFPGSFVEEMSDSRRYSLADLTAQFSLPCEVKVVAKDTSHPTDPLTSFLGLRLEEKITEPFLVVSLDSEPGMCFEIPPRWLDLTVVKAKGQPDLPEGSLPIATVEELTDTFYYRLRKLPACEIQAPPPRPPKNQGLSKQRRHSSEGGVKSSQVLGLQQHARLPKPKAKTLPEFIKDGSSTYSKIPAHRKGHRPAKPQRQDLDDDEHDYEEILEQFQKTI
UniProt Q96MV1: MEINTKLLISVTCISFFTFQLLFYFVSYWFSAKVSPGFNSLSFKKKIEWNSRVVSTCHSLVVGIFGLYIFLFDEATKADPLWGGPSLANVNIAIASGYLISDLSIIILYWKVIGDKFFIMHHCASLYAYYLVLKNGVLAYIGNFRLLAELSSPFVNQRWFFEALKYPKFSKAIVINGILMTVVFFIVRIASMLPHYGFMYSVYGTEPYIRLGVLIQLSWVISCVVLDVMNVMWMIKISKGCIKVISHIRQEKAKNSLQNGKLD
UniProt Q07157: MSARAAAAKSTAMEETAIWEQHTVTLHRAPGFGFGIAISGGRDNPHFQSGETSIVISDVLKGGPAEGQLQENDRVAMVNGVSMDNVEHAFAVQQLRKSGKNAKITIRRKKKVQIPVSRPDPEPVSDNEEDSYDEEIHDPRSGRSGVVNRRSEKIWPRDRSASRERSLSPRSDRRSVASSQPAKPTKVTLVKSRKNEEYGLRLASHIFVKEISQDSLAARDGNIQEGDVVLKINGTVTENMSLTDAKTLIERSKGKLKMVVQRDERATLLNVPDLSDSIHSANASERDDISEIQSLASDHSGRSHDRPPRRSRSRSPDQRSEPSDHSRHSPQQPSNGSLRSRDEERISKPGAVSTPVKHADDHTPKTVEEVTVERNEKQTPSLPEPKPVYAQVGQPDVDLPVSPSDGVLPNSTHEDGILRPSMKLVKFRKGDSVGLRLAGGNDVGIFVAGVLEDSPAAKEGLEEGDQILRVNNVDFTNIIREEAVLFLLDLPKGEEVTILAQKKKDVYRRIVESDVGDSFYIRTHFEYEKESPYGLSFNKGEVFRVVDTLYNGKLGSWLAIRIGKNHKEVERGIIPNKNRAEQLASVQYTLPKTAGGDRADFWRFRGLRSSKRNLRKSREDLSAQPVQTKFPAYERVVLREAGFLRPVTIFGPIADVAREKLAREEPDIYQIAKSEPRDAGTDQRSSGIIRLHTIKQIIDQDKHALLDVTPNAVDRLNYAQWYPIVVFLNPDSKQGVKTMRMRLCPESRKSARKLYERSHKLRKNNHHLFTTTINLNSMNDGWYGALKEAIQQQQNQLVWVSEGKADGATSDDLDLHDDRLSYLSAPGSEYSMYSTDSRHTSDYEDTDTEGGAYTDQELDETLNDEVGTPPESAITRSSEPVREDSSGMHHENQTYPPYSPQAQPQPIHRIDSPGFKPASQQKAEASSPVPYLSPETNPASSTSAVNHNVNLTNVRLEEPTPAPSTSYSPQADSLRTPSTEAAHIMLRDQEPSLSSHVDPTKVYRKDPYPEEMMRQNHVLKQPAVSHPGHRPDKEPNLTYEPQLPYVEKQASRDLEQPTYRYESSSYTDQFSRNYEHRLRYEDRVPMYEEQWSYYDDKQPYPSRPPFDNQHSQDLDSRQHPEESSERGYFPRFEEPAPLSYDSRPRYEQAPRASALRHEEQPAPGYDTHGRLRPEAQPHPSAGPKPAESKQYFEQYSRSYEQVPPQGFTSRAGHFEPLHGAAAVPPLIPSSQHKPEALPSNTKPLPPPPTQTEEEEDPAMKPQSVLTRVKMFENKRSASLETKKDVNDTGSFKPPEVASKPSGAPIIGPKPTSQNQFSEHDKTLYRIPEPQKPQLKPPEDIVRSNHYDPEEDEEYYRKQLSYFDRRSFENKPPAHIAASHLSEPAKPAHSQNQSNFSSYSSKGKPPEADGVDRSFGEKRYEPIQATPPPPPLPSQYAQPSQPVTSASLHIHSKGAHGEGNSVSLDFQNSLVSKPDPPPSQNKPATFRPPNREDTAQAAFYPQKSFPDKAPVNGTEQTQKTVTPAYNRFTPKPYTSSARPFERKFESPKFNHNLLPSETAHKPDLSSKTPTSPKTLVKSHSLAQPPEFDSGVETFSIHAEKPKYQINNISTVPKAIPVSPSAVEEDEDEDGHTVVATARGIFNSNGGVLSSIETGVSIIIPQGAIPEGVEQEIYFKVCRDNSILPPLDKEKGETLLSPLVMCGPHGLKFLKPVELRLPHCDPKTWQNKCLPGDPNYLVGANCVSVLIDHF
UniProt Q9UM00: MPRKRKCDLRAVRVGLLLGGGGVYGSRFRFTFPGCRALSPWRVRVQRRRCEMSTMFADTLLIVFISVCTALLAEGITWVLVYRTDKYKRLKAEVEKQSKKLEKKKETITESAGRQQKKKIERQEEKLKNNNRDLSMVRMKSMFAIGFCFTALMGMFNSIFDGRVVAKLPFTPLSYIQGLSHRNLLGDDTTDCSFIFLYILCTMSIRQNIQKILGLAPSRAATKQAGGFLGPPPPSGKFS
UniProt Q86WV6: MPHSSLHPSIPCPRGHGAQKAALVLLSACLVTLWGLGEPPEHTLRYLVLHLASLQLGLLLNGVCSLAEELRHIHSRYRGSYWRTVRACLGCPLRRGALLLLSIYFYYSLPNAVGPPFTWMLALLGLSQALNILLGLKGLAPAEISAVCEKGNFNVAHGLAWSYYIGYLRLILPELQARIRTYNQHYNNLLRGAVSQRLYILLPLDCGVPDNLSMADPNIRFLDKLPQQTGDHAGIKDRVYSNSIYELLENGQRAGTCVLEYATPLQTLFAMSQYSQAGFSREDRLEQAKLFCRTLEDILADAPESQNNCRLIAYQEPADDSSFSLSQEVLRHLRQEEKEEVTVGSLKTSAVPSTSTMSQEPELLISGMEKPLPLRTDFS
UniProt Q7Z7N9: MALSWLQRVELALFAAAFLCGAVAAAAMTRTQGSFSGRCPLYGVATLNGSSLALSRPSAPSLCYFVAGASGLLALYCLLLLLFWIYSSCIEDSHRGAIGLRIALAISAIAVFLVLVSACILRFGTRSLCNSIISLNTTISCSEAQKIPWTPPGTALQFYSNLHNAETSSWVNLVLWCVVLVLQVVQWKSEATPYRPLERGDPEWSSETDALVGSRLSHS
UniProt Q9BVC6: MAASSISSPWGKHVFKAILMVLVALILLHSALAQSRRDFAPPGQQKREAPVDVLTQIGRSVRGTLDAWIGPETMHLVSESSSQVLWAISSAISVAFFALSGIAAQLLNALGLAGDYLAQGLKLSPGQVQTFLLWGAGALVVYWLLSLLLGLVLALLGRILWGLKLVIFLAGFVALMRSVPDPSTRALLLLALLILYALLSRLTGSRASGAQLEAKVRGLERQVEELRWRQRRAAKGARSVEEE
UniProt P52888, whole entry, looked up: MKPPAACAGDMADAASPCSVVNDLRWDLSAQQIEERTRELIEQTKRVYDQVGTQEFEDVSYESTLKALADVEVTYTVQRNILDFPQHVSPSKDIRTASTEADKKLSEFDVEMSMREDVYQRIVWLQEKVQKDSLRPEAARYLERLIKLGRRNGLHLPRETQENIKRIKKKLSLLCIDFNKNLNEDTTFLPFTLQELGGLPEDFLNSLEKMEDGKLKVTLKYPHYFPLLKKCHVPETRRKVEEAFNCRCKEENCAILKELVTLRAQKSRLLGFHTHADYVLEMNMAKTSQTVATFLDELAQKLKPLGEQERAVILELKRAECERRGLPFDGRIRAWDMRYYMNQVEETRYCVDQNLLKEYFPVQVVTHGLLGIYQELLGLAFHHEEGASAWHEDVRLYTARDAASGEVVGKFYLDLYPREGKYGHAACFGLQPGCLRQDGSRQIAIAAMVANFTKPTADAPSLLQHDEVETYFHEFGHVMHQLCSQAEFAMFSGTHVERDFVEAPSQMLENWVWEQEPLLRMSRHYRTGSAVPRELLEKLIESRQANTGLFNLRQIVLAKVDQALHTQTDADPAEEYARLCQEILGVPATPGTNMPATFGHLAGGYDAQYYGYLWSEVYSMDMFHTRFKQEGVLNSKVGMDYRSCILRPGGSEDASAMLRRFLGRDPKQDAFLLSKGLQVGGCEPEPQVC
UniProt Q96CP7: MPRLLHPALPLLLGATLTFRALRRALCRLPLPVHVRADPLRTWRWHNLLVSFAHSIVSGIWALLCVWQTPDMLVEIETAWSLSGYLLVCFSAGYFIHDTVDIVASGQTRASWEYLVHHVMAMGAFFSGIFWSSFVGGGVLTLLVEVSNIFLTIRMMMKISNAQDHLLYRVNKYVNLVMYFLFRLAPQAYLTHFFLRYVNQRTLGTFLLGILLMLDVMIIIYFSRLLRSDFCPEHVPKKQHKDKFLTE
UniProt Q13769: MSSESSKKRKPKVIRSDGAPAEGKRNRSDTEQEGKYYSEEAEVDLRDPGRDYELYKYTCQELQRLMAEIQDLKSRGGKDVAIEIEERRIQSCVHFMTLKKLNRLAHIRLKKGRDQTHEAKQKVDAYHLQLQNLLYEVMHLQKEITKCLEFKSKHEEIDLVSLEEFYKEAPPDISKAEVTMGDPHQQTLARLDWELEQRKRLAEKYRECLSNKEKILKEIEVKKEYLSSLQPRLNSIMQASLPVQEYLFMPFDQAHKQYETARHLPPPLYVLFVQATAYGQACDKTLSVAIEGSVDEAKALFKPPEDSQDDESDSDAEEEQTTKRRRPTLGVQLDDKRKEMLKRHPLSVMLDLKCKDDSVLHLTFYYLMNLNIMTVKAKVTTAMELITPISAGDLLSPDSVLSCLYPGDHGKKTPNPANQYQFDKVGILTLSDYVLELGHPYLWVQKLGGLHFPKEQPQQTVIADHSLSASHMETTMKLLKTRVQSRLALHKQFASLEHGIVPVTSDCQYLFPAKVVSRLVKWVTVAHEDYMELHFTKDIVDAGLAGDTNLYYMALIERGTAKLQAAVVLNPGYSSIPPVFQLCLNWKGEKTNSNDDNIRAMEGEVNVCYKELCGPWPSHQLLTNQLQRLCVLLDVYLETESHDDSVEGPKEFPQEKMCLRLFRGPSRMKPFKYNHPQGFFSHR

Assays:
Assay in all cases: log2 fold change, soluble protein after heating vs DMSO (PISA); higher = thermal stabilisation; K562 lysate, 10 uM; active = over 0.2 and 3.5 SD of the protein, either way, in both replicates (recomputed)
erlotinib = compound: C#Cc1cccc(Nc2ncnc3cc(OCCOC)c(OCCOC)cc23)c1 [erlotinib]
How it was run: (§1)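 Values give the log-two fold change in thermal stability against solvent controls, from duplicates. Crude K562 extract at 1 mg/mL protein, made by dounce homogenisation in PBS pH 7.4 with 1 mM MgCl2, was treated with 10 μM compound for 30 min. After 3 min heating across 48°C-58°C, aliquots were pooled, adjusted to 0.5% NP-40 at 4°C and centrifuged at 21,000xg for 90 min. The supernatant was measured by TMTpro 16plex LC-MS/MS with channel sums equalised.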

[1] = compound: C/C(=N\NC(=O)C1=CC(=CC=C1)S(=O)(=O)N2CCOCC2)/C3=C(C=CC(=C3)Cl)O
How it was run: as §1

[2] = compound: C1=CC(=CC=C1C2=NC3=C(N2)C=C(C=C3)C(=O)N)OC4=CC=C(C=C4)Cl
How it was run: as §1

[3] = compound: C1=CC2=C(C=CC(=C2)/C=C\3/C(=O)NC(=NCC4=CC=CS4)S3)N=C1
How it was run: as §1

[4] = compound: C1=CC2=NC=CN=C2C=C1/C=C/3\C(=O)NC(=O)S3
How it was run: as §1

[5] = compound: C1=CC=C(C=C1)C2=NC(=C(N2)C3=CC=NC=C3)C4=CC(=C(C=C4)Cl)O
How it was run: as §1

[6] = compound: C1=CC=C2C(=C1)C3=NNC4=CC=CC(=C43)C2=O
How it was run: as §1

[7] = compound: C1CCN(C1)C(=O)NC2=CC=CC(=C2)NC3=NC=C(C(=N3)NCCC4=CN=CN4)Br
How it was run: as §1

[8] = compound: C1CN(CCC1(CC2=CC=C(C=C2)Cl)N)C3=NC=NC4=C3C=CN4
How it was run: as §1

IRAK-1-4 Inhibitor I = compound: C1COCCN1CCN2C3=CC=CC=C3N=C2NC(=O)C4=CC(=CC=C4)[N+](=O)[O-] [IRAK-1-4 Inhibitor I]
How it was run: as §1

ibrutinib = compound: C=CC(=O)N1CCC[C@@H](n2nc(-c3ccc(Oc4ccccc4)cc3)c3c(N)ncnc32)C1 [ibrutinib]
How it was run: as §1

[9] = compound: CC(=O)c1cnc2ccc(-c3cc(Cl)c(O)c(Cl)c3)nc2c1N[C@H]1CC[C@H](CN(C)C)CC1
How it was run: as §1

ralimetinib = compound: CC(C)(C)Cn1c(N)nc2ccc(-c3[nH]c(C(C)(C)C)nc3-c3ccc(F)cc3)nc21 [ralimetinib]
How it was run: as §1

[10] = compound: CC(C)(O)CC(=O)NCCn1ccc2ncnc(Nc3ccc(Oc4cccc(C(F)(F)F)c4)c(Cl)c3)c21
How it was run: as §1

[11] = compound: CC(C)C1=C2N=C(C=C(N2N=C1)NCC3=CC=CC=C3)NCCCCCCN
How it was run: as §1

[12] = compound: CC1=C(C(CC(=O)N1)C2=CC=C(C=C2)C(F)(F)F)C(=O)NC3=C(C=C4C(=C3)C=NN4)F
How it was run: as §1

[13] = compound: CC1=C(C2=C(C=C1)C(=O)C3=CC=CC=C3N2CCCN)C
How it was run: as §1

[14] = compound: CC1=C(C=C(C=C1)NC(=O)C2=CC(=CC=C2)C(C)(C)C#N)NC3=CC4=C(C=C3)N=CN(C4=O)C
How it was run: as §1

[15] = compound: CC1=C(C=C(C=C1)NC(=O)C2=CC(=CC=C2)N(C)C)NC(=O)C3=CC=C(C=C3)O
How it was run: as §1

[16] = compound: CC1=CC=C(C=C1)SC2=C3C=C(SC3=CN=C2)C(=O)N
How it was run: as §1

Measured: log2 fold change

TMED5 (UniProt Q9Y3A6)
inactive: erlotinib 0.014 | [1] -0.003 | [2] -0.067 | [3] -0.007 | [4] 0.008 | [5] -0.072 | [6] 0.021 | [7] 0.025 | [8] -0.01 | IRAK-1-4 Inhibitor I 0.027 | ibrutinib 0.009 | [9] 0.032 | ralimetinib 0.029 | [10] -0.02 | [11] -0.02 | [12] 0.032 | [13] 0.002 | [14] -0.017 | [15] -0.025 | [16] -0.03

TMED2 (UniProt Q15363)
inactive: erlotinib -0.005 | [1] -0.007 | [2] -0.051 | [3] 0.032 | [4] -0.007 | [5] 0.023 | [6] -0.094 | [7] -0.013 | [8] 0.008 | IRAK-1-4 Inhibitor I 0.045 | ibrutinib 0.026 | [9] -0.008 | ralimetinib -0.015 | [10] -0.032 | [11] 0.014 | [12] 0.019 | [13] -0.01 | [14] 0.032 | [15] -0.016 | [16] -0.019

THOC7 (UniProt Q6I9Y2)
inactive: erlotinib -0.021 | [1] -0.041 | [2] -0.044 | [3] 0.015 | [4] 0.021 | [5] -0.01 | [6] 0.029 | [7] 0.051 | [8] -0.004 | IRAK-1-4 Inhibitor I 0.013 | ibrutinib 0.062 | [9] -0.023 | ralimetinib 0.019 | [10] -0.005 | [11] 0.031 | [12] 0.014 | [13] 0.006 | [14] -0.004 | [15] 0.004 | [16] -0.022

TIMM21 (UniProt Q9BVV7)
inactive: erlotinib 0.01 | [1] -0.018 | [2] 0.094 | [3] -0.011 | [4] -0.029 | [5] -0.051 | [6] -0.021 | [7] -0.039 | [8] -0.021 | IRAK-1-4 Inhibitor I -0.022 | ibrutinib 0.007 | [9] 0 | ralimetinib 0.048 | [10] 0 | [11] 0.032 | [12] -0.072 | [13] 0.001 | [14] -0.003 | [15] 0.014 | [16] 0.003

TMEM126B (UniProt Q8IUX1)
inactive: erlotinib 0.023 | [1] 0.077 | [2] 0.007 | [3] -0.061 | [4] 0.039 | [5] 0.028 | [6] -0.02 | [7] 0.009 | [8] 0.03 | IRAK-1-4 Inhibitor I 0.035 | ibrutinib -0.024 | [9] 0.006 | ralimetinib -0.026 | [10] -0.114 | [11] -0.033 | [12] 0.025 | [13] -0.05 | [14] 0.14 | [15] 0.004 | [16] 0.008

TIMM8A (UniProt O60220)
inactive: erlotinib 0.177 | [1] 0.023 | [2] -0.012 | [3] -0.085 | [4] -0.056 | [5] -0.025 | [6] -0.031 | [7] 0.086 | [8] 0.007 | IRAK-1-4 Inhibitor I -0.054 | ibrutinib 0.018 | [9] 0 | ralimetinib -0.023 | [10] 0.033 | [11] -0.065 | [12] 0.005 | [13] 0 | [14] 0 | [15] 0 | [16] 0.049

THEMIS2 (UniProt Q5TEJ8)
inactive: erlotinib -0.035 | [1] 0.006 | [2] 0.004 | [3] 0.036 | [4] 0.031 | [5] -0.041 | [6] -0.024 | [7] -0.02 | [8] 0.042 | IRAK-1-4 Inhibitor I 0.031 | ibrutinib 0.029 | [9] -0.038 | ralimetinib 0.059 | [10] -0.037 | [11] -0.009 | [12] 0.029 | [13] -0.051 | [14] -0.023 | [15] -0.042 | [16] 0.126

TLCD4 (UniProt Q96MV1)
inactive: erlotinib 0 | [1] -0.032 | [2] 0.022 | [3] 0 | [4] 0.029 | [5] -0.042 | [6] -0.059 | [7] 0.025 | [8] -0.002 | IRAK-1-4 Inhibitor I -0.11 | ibrutinib 0.011 | [9] 0.014 | ralimetinib 0.049 | [10] 0.099 | [11] -0.021 | [12] 0.034 | [13] 0.115 | [14] -0.116 | [15] -0.078 | [16] -0.006

TJP1 isoform 2 (UniProt Q07157)
inactive: erlotinib -0.002 | [1] 0 | [2] 0.037 | [3] -0.007 | [4] -0.082 | [5] -0.018 | [6] -0.041 | [7] -0.075 | [8] 0.039 | IRAK-1-4 Inhibitor I 0.015 | ibrutinib 0.019 | [9] -0.001 | ralimetinib -0.007 | [10] -0.041 | [11] 0.036 | [12] 0.002 | [13] -0.025 | [14] 0.015 | [15] 0.016 | [16] -0.014

TMCO1 (UniProt Q9UM00)
inactive: erlotinib 0.04 | [1] 0.073 | [2] -0.126 | [3] 0.059 | [4] -0.018 | [5] 0.022 | [6] -0.053 | [7] -0.092 | [8] 0.007 | IRAK-1-4 Inhibitor I -0.023 | ibrutinib 0.015 | [9] 0.081 | ralimetinib 0.018 | [10] -0.056 | [11] -0.05 | [12] -0.026 | [13] -0.009 | [14] -0.047 | [15] -0.008 | [16] 0.007

TMEM173 (UniProt Q86WV6)
inactive: erlotinib -0.005 | [1] 0.028 | [2] -0.061 | [3] 0.011 | [4] -0.004 | [5] -0.136 | [6] -0.077 | [7] 0.001 | [8] -0.024 | IRAK-1-4 Inhibitor I 0.014 | ibrutinib 0.021 | [9] -0.006 | ralimetinib 0.09 | [10] -0.003 | [11] 0 | [12] -0.198 | [13] 0.013 | [14] 0.023 | [15] 0.04 | [16] 0.062

TMEM179B (UniProt Q7Z7N9)
inactive: erlotinib 0 | [1] -0.045 | [2] 0.08 | [3] 0.079 | [4] 0 | [5] -0.018 | [6] 0.09 | [7] -0.044 | [8] 0.026 | IRAK-1-4 Inhibitor I 0.013 | ibrutinib 0.107 | [9] -0.054 | ralimetinib -0.134 | [10] -0.027 | [11] -0.121 | [12] 0.033 | [13] 0.007 | [14] 0.151 | [15] 0.034 | [16] 0.016

TMEM109 (UniProt Q9BVC6)
inactive: erlotinib 0.004 | [1] 0.027 | [2] 0.021 | [3] -0.01 | [4] 0.017 | [5] -0.009 | [6] 0.005 | [7] 0.032 | [8] 0 | IRAK-1-4 Inhibitor I 0.043 | ibrutinib 0.03 | [9] -0.027 | ralimetinib 0.039 | [10] 0.023 | [11] -0.014 | [12] -0.002 | [13] -0.019 | [14] 0.02 | [15] 0.035 | [16] -0.005

THOP1 (UniProt P52888)
inactive: erlotinib 0.01 | [1] 0.064 | [2] 0.031 | [3] -0.018 | [4] 0.005 | [5] -0.018 | [6] 0.02 | [7] 0.005 | [8] 0.016 | IRAK-1-4 Inhibitor I -0.001 | ibrutinib 0.025 | [9] -0.002 | ralimetinib 0.013 | [10] -0.027 | [11] 0.001 | [12] 0.003 | [13] -0.002 | [14] 0.029 | [15] -0.038 | [16] -0.001

TLCD1 (UniProt Q96CP7)
inactive: erlotinib -0.048 | [1] -0.1 | [2] -0.13 | [3] 0.011 | [4] 0.148 | [5] -0.078 | [6] 0.022 | [7] 0.006 | [8] 0.012 | IRAK-1-4 Inhibitor I 0.319 | ibrutinib -0.228 | [9] 0.026 | ralimetinib 0.097 | [10] -0.074 | [11] -0.19 | [12] -0.1 | [13] 0.036 | [14] -0.135 | [15] 0 | [16] -0.079

Random excerpt: 2 entries already listed, in no set order.
THOP1 (UniProt P52888)
inactive: erlotinib 0.01 | [1] 0.064 | [2] 0.031 | [3] -0.018 | [4] 0.005 | [5] -0.018 | [6] 0.02 | [7] 0.005 | [8] 0.016 | IRAK-1-4 Inhibitor I -0.001 | ibrutinib 0.025 | [9] -0.002 | ralimetinib 0.013 | [10] -0.027 | [11] 0.001 | [12] 0.003 | [13] -0.002 | [14] 0.029 | [15] -0.038 | [16] -0.001

TMEM109 (UniProt Q9BVC6)
inactive: erlotinib 0.004 | [1] 0.027 | [2] 0.021 | [3] -0.01 | [4] 0.017 | [5] -0.009 | [6] 0.005 | [7] 0.032 | [8] 0 | IRAK-1-4 Inhibitor I 0.043 | ibrutinib 0.03 | [9] -0.027 | ralimetinib 0.039 | [10] 0.023 | [11] -0.014 | [12] -0.002 | [13] -0.019 | [14] 0.02 | [15] 0.035 | [16] -0.005

Going on with the list.

THOC5 (UniProt Q13769)
inactive: erlotinib 0.013 | [1] -0.105 | [2] 0.036 | [3] -0.035 | [4] 0.008 | [5] -0.001 | [6] -0.016 | [7] 0.005 | [8] 0.001 | IRAK-1-4 Inhibitor I -0.012 | ibrutinib 0.023 | [9] 0.004 | ralimetinib 0.015 | [10] -0.011 | [11] 0.008 | [12] -0.011 | [13] -0.002 | [14] 0.004 | [15] 0.018 | [16] -0.001
